Experiment [1] deals with T1, S. pombe 6His-Pcu1 (S. pombe) (UniProt O13790).
T1 sequence: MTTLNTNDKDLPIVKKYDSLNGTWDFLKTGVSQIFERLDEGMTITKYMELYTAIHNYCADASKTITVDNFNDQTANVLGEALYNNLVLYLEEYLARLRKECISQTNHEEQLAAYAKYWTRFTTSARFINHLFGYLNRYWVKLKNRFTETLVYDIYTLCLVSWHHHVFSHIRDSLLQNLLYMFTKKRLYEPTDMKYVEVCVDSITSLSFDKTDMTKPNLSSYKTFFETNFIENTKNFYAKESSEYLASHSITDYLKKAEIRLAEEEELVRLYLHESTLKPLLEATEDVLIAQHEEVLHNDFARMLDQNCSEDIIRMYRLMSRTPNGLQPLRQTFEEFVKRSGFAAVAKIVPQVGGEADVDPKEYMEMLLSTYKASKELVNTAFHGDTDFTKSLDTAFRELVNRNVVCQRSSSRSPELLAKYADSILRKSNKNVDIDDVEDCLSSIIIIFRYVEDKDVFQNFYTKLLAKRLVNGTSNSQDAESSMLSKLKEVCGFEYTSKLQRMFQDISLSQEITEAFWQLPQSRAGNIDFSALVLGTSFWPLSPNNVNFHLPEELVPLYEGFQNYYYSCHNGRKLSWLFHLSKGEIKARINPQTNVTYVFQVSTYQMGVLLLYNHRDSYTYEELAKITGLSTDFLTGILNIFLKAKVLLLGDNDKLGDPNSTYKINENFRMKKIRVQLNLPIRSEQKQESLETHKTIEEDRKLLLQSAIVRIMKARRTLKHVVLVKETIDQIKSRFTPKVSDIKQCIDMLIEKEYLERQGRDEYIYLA
Nature of the experiment: co-purification (co-elution on ion-exchange and heparin columns); insect cells co-infected with 6His-Pcu1 and 6His-Rbx1 baculoviruses; TALON resin, then co-elution from HiTrap Q (~500 mM NaCl) and HiTrap Heparin (~600 mM NaCl).

Sequences of proteins named here, by UniProt entry; tags and fusion partners are left off.
UniProt O13959: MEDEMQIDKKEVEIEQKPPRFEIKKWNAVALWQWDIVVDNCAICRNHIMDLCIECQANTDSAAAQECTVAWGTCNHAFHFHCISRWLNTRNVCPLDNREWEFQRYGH

Experiment [2] concerns the target T2, 3FLAG6His-Fbh1 (S. pombe) (UniProt Q9USU3).
T2 sequence: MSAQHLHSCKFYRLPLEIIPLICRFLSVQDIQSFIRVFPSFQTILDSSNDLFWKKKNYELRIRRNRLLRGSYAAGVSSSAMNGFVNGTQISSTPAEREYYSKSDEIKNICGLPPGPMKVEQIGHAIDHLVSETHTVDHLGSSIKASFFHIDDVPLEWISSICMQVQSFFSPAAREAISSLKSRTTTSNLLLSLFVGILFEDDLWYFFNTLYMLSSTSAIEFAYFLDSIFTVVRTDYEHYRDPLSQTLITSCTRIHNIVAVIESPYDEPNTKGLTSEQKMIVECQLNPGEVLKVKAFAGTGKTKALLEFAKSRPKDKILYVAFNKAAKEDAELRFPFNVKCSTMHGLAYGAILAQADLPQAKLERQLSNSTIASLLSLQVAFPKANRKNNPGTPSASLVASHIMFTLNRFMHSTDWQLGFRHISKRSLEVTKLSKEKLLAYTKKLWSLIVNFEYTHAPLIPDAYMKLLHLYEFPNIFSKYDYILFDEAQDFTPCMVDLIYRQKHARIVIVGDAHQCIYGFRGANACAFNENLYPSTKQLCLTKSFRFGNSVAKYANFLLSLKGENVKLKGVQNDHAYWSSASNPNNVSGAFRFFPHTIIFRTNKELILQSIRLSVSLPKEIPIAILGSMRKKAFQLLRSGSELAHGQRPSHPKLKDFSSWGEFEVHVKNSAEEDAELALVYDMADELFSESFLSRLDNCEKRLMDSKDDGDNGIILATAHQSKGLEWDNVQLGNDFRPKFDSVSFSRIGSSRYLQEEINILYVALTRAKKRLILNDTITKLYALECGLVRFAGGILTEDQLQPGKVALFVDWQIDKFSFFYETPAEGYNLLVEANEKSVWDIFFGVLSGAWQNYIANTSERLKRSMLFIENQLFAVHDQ
Nature of the experiment: co-purification (co-elution on ion-exchange, heparin and gel-filtration columns); insect cells co-infected with the two baculoviruses; TALON resin, then co-elution from HiTrap Q (~500 mM NaCl), HiTrap Heparin (~600 mM NaCl), Superdex 200 in R buffer with 1 M NaCl, ResourceQ (~600 mM NaCl).

The next experiment concerns the target T3, Fbh1^K301A (S. pombe) (UniProt Q9USU3).
T3 sequence: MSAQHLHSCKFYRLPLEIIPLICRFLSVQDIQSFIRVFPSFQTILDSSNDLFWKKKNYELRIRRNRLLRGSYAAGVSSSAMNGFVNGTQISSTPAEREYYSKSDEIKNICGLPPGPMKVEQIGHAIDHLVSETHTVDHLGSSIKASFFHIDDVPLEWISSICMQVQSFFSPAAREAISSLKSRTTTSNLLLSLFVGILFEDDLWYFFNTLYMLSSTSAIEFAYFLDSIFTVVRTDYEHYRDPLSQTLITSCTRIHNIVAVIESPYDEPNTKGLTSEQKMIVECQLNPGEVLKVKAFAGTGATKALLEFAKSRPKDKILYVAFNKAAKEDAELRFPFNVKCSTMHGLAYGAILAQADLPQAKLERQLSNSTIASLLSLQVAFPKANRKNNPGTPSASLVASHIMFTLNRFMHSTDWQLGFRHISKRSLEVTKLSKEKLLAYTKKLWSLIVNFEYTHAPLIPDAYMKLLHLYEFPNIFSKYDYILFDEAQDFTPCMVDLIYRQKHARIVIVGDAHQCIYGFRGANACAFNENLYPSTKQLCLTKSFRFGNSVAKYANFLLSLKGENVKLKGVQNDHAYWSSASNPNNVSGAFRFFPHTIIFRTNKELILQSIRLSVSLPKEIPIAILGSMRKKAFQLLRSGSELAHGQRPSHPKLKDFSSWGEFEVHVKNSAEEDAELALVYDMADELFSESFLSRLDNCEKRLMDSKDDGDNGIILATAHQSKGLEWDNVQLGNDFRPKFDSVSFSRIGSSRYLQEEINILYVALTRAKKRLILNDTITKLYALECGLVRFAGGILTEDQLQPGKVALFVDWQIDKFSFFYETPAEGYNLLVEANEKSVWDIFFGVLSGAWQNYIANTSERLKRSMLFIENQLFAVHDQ
The description is as above.

The target of experiment [3] is T4, S. pombe 6His-Fbh1 (S. pombe) (UniProt Q9USU3).
T4 sequence: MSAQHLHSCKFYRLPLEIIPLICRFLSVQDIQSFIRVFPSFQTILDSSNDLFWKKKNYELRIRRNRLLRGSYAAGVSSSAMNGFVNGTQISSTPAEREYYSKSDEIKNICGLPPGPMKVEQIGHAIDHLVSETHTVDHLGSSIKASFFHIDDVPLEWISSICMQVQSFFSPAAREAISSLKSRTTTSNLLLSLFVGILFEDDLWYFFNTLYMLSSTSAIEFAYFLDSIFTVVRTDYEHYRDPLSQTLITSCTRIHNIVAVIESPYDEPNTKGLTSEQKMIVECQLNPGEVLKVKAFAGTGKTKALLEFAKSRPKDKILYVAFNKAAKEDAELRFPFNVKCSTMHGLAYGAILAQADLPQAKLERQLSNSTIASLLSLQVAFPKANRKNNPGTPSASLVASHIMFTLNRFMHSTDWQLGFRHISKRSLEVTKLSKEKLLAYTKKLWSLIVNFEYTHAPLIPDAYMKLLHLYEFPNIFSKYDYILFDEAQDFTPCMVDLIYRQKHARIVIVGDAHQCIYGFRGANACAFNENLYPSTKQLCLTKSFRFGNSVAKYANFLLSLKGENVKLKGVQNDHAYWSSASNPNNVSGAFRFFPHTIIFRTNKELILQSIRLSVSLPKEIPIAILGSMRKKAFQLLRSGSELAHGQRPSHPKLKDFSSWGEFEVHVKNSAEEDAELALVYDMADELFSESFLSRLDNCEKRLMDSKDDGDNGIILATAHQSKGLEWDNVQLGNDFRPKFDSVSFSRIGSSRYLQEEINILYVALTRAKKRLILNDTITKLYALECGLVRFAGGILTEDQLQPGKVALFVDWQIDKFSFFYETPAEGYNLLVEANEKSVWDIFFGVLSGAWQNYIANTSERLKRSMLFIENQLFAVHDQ
The experiment is described as above.

For experiment [4], the target named is T5, complex of 3FLAG6His-Fbh1 and 6His-Skp1 (S. pombe, UniProt Q9USU3 1-878; Q9Y709 1-161).
T5 construct: Fbh1 (F-box DNA helicase-1), Schizosaccharomyces pombe; Skp1, Schizosaccharomyces pombe; also called FLAG-His-tagged Fbh1-Skp1; Fbh1-Skp1 complex; source: insect cells, baculovirus co-infection, purified as a complex
T5 sequence (looked up) 1: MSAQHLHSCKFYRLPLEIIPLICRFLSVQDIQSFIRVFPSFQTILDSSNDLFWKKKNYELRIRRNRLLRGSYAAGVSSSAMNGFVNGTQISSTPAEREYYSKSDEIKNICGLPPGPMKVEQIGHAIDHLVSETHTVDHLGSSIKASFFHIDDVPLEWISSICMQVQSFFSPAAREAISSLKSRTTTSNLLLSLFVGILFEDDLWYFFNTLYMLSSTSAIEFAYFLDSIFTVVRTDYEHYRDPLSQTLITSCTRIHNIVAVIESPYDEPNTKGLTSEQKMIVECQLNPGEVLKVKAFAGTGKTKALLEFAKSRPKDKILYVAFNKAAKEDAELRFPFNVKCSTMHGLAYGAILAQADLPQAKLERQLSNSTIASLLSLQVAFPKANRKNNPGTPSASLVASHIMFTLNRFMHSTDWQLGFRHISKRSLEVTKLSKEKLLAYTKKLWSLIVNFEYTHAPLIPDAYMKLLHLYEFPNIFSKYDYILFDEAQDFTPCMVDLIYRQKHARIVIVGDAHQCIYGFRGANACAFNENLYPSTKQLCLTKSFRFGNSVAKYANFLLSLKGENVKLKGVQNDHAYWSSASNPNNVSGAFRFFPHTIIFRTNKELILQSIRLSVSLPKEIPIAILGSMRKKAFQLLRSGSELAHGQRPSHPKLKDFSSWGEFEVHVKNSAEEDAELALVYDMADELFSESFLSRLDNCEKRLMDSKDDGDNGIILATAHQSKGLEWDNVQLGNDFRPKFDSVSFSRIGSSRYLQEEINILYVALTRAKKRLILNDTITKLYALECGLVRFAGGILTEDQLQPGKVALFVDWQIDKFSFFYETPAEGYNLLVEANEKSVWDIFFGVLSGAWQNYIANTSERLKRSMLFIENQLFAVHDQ
T5 sequence (looked up) 2: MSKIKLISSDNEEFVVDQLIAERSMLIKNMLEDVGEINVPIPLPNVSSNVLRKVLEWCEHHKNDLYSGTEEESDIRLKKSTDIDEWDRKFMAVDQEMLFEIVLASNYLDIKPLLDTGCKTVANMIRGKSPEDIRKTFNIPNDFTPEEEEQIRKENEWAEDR
Nature of the experiment: co-IP; in vitro; 0.5 µg of each purified protein mixed in 10 µl 25 mM Tris-OAc pH 7.5, 100 mM KCl, 0.5% NP40, 3 mM Mg-acetate, 10 min room temperature then 20 min 4°C; M2 anti-FLAG antibody and Dynabeads Protein G; western blot with anti-Rad51, anti-Sfr1 or anti-M2; both purified. (In western blotting, separated proteins are transferred to a membrane and probed.)

These are yes or no findings as the source states them, for the method shown. Some binding calls cover weakened binding; strength is not graded here. Sequences can lack the tags named with a protein.

“S. pombe 6His-Rbx1 (from UniProt O13959 1-107)”: the binding entry in experiment [1] is reported as “binds”.

B1: S. pombe 6His-Skp1 (protein, UniProt Q9Y709 1-161)
chain: MSKIKLISSDNEEFVVDQLIAERSMLIKNMLEDVGEINVPIPLPNVSSNVLRKVLEWCEHHKNDLYSGTEEESDIRLKKSTDIDEWDRKFMAVDQEMLFEIVLASNYLDIKPLLDTGCKTVANMIRGKSPEDIRKTFNIPNDFTPEEEEQIRKENEWAEDR
Regarding B1, the binding result (in experiment [2]; with Fbh1^K301A (S. pombe); in experiment [3]) was “binds” in each case.

B2: Swi5-Sfr1 complex (complex, UniProt Q9UUB7 1-85; Q9USV1 1-299)
chain 1: MEKSQLESRVHLLEQQKEQLESSLQDALAKLKNRDAKQTVQKHIDLLHTYNEIRDIALGMIGKVAEHEKCTSVELFDRFGVNGSE
chain 2: MSQTINSELNENATSQCKEDLKVSLSESDLRDSQGQLGIENPPKCNNSGNHSDNLGFIEQSETVHPENEKALTPDLRDTKIHTSLPITTPFSKKRAREAKNILLKPFKSPLRQTASPQVADTNLKPSLAVTNLNSDETNTSSEPVTSPLRTTPNSIKRQKRLFKSPISNCLNPKSDPEITQLLSRRLKLEKEVRNLQEQLITAETARKVEAKNEDKDLQTLIQKWKNAAQQAAEVLFKPMAERIRLAGGVTQSFRIEEGENKGQIQEVRTEFTMSMFLNQFGVPVHLMSFDEENGDWKS
In the case of B2, the binding entry in experiment [4] is reported as “no binding (tested: 0.5 µg of each protein in 10 µl)”.

The values are drawn from article PMC4148199, “Multiple Regulation of Rad51-Mediated Homologous Recombination by Fission Yeast Fbh1” (PLoS Genetics, 2014).
